# “And” between values parts separate entries of the source, which are not always exact repeats. Equal values may be shown once. The inconclusive results got no clear call from the source; some entries with a clear call stand among them for comparison. For some assays here: Potencies of inconclusive entries are doubtful fits and often do not repeat. The source made the active and inactive calls. The calls were made as follows: active = hit-call score of the fitted dose curve at least 0.9, where 1 is the maximum; inconclusive = response in the unintended direction; inactive = score below 0.9.
# The chains behind the UniProt entries cited, without tags or fusion partners. Where a name states a change or a piece, a line headed by the entry shows the natural chain unless it says otherwise.
# UniProt P19793: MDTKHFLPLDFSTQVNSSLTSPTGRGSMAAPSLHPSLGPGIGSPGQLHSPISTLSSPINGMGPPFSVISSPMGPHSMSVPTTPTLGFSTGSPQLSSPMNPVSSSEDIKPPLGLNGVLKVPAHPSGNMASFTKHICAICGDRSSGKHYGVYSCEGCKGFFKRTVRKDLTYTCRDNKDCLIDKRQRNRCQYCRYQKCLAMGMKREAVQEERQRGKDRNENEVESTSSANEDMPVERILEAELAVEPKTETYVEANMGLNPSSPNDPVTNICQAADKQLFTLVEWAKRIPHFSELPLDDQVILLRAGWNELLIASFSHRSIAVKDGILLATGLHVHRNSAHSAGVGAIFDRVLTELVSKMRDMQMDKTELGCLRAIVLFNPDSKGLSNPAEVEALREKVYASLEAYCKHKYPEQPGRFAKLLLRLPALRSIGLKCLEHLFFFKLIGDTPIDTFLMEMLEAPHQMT
# UniProt P04637, whole entry, looked up: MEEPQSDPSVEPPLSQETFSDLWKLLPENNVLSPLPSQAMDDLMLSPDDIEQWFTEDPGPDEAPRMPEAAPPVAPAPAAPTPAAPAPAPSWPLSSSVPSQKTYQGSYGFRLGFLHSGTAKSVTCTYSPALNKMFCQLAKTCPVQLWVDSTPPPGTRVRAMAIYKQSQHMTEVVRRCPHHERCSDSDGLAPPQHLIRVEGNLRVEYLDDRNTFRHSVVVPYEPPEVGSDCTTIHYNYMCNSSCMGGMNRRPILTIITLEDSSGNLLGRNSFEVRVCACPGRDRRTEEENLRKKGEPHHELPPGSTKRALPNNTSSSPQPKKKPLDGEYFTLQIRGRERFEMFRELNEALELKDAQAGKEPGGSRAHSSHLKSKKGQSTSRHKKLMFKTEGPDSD
# UniProt P10827: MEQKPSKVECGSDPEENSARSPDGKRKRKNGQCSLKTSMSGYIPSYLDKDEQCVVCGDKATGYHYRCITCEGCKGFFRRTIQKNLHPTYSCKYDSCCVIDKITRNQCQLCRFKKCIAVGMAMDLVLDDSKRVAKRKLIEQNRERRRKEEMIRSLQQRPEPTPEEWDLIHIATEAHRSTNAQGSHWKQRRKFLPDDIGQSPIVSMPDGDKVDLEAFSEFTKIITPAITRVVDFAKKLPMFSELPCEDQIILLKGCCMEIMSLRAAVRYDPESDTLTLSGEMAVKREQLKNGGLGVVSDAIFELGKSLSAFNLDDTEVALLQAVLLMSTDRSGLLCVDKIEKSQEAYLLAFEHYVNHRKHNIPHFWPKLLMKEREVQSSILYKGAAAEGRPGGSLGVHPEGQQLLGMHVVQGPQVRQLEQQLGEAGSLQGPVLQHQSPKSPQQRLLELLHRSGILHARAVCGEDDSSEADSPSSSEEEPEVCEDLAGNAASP
# UniProt P11473: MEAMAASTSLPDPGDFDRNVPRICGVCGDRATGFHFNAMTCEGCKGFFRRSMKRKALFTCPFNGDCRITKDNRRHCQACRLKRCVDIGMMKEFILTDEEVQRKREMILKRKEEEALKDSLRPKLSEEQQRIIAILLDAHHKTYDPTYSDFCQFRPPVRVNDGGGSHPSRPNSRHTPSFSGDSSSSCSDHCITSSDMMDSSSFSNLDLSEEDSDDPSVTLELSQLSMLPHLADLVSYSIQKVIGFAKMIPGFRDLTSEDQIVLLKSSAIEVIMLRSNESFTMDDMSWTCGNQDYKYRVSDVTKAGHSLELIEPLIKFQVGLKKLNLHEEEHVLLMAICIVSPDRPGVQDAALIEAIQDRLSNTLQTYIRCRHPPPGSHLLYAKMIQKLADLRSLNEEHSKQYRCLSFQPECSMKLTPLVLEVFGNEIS
# UniProt P37231: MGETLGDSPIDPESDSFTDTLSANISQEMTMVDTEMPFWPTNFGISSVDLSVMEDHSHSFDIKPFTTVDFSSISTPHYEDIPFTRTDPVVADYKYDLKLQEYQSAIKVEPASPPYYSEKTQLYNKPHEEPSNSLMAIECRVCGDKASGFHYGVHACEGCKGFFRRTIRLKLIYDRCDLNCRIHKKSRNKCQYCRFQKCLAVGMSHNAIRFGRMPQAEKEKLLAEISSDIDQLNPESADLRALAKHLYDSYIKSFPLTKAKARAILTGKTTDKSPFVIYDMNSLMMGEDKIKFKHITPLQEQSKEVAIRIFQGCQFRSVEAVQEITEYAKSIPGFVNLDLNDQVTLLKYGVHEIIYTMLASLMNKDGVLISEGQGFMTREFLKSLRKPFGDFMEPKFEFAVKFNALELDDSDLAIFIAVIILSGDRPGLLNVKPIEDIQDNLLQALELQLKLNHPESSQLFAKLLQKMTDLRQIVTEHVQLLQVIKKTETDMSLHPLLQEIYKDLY
# UniProt P04406: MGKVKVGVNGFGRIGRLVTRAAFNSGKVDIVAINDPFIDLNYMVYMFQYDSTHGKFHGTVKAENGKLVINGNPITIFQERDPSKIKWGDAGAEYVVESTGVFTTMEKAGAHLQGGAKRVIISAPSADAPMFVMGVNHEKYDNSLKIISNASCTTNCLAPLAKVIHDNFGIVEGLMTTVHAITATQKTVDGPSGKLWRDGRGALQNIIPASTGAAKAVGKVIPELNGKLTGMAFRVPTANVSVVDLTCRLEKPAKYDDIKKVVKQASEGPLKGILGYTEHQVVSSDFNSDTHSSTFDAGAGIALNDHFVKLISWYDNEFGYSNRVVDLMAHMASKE
# UniProt Q03181: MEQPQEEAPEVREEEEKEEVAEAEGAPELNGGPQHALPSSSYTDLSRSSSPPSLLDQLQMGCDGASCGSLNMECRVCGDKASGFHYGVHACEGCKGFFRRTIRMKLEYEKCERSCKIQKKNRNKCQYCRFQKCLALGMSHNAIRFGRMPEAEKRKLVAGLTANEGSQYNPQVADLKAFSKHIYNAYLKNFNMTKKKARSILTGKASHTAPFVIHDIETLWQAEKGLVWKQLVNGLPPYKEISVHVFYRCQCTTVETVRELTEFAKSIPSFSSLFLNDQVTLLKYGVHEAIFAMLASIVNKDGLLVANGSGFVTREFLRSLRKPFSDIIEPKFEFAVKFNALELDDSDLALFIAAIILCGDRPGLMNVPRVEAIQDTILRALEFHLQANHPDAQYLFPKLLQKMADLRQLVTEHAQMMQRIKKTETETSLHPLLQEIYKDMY
# Experiments:
# [1] = ATG_M_06_TRANS: Attagene TRANS-FACTORIAL HepG2 Assay for M06 Transcription Factor (Internal Marker) (AID 2282983); conditions: HepG2 Attagene TRANS M06 internal marker reporter;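 as to AC50: potency for rise in reporter mRNA above DMSO baseline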
# Method in brief: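 Read-out: fluorescent reporter cDNA fragments resolved by capillary electrophoresis after RT-PCR and HpaI cut. Source cells were HepG2 carrying transfected multi-reporter GAL4 constructs, dosed 24 h. Increase over DMSO control analysed.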
# [2] = molecular target: Retinoic acid receptor RXR-alpha (Homo sapiens) (UniProt P19793); assay: ATG_RXRa_TRANS: Attagene TRANS-FACTORIAL HepG2 Assay for human Retinoid X Receptor alpha (RXRa) (AID 2283012)
# Method in brief: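 Measures exogenous chimeric NR-GAL4 activity in transfected HepG2 liver cells after 24 h of dosing. Induced reporter mRNA was detected by RT-PCR with capillary electrophoresis, and gain of signal was analysed against DMSO.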
# [3] = molecular target: Cellular tumor antigen p53 (Homo sapiens) (UniProt P04637); assay: TOX21_p53_BLA_p3_ratio: Tox21 HCT-116 p53 Agonism Beta-lactamase Assay, Ratio, Phase 3 (AID 2283596)
# Method in brief: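 Cells were seeded at 4000/well, rested 5 h at 37C, then dosed with DMSO compound solutions (217-fold dilution) for 16 h. CCF4-AM substrate was loaded for 2 h at room temperature, and the 460/530 nm emission ratio was fitted for gain of signal versus DMSO.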
# [4] = molecular target: Cellular tumor antigen p53 (Homo sapiens) (UniProt P04637); assay: TOX21_p53_BLA_p4_ratio: Tox21 HCT-116 p53 Agonism Beta-lactamase Assay, Ratio, Phase 4 (AID 2283601)
# Method in brief: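 HCT-116 p53 beta-lactamase reporter cells (4000/well) preincubated 5 h, then compound (217-fold dilution of DMSO stock) for 16 h at 37C. CCF4-AM substrate added 2 h at room temperature; 460/530 nm emission ratio fitted upward versus DMSO.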
# [5] = read-out: organic anion transporter (SLCO1B1), SLCO1B1 (gene 10599); assay: CLD_SLCO1B1_6hr: CellzDirect (CLD) Gene Expression Assay for organic anion transporter (SLCO1B1) at 6 hours (AID 2283668);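 also: active means mRNA induction above DMSO baseline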
# Method in brief: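 SLCO1B1 mRNA induction measured 6 h after dosing by quantitative nuclease protection with chemiluminescent read-out, in human primary hepatocyte cultures given chemicals at several concentrations (vehicle 0.2% DMSO). Increase over DMSO baseline fitted; morphology-based cytotoxicity annotated yes/no.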
# [6] = CLD_ACTIN_24hr: CellzDirect (CLD) Gene Expression Assay for Baseline Control (Actin) at 24 hours (AID 2283670)
# Method in brief: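 This 24 h qNPA (S1 nuclease protection, chemiluminescence) actin transcript readout in cultured human liver primary cells serves as baseline control. Signal is fitted upward relative to 0.2% DMSO; chemicals tested at multiple concentrations across two donor preparations.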
# [7] = read-out: HMG-CoA synthase (HMGCS2), HMGCS2 (gene 3158); assay: CLD_HMGCS2_24hr: CellzDirect (CLD) Gene Expression Assay for HMG-CoA synthase (HMGCS2) at 24 hours (AID 2283691)
# Method in brief: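 qNPA with S1 nuclease digestion and chemiluminescent detection gave HMGCS2 transcript levels, fitted upward against 0.2% DMSO vehicle. Cultured human hepatocytes (two donors) received fresh compound daily and were harvested at 24 h; phase-contrast morphology flagged cytotoxicity.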
# [8] = read-out: HMG-CoA synthase (HMGCS2), HMGCS2 (gene 3158); assay: CLD_HMGCS2_48hr: CellzDirect (CLD) Gene Expression Assay for HMG-CoA synthase (HMGCS2) at 48 hours (AID 2283711)
# Method in brief: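 mRNA induction read by qNPA chemiluminescence, 48 h after dosing. Cultured primary human liver cells (two donor preparations) received fresh compound daily over two days against 0.2% DMSO vehicle; morphology-based cytotoxicity noted alongside.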
# [9] = ATG_M_32_TRANS: Attagene TRANS-FACTORIAL HepG2 Assay for M32 Transcription Factor (Internal Marker) (AID 2282984); conditions: HepG2 Attagene TRANS M32 internal marker reporter;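 as to outcome: transcript level of a background control reporter unit measured by RT-PCR and capillary electrophoresis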
# Method in brief: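 Internal-marker readout from a multiplexed transcription reporter panel. HepG2 cells were transfected with GAL4-UAS reporter units, treated 24 hours, and reporter transcript levels determined by fluorescence after RT-PCR and capillary separation.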
# [10] = molecular target: human Thyroid Receptor alpha (THRa1), THRA (gene 7067) (UniProt P10827); assay: ATG_THRa1_TRANS: Attagene TRANS-FACTORIAL HepG2 Assay for human Thyroid Receptor alpha (THRa1) (AID 2283014)
# Method in brief: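 Transient HepG2 transfection, NR-Gal4 chimera driving GAL4-UAS reporters; 24 h compound exposure; total RNA, oligo(dT) RT, PCR, fluorescent primer extension, capillary electrophoresis. Upward direction vs DMSO control.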
# [11] = molecular target: human Vitamin D Receptor (VDR), VDR (gene 7421) (UniProt P11473); assay: ATG_VDR_TRANS: Attagene TRANS-FACTORIAL HepG2 Assay for human Vitamin D Receptor (VDR) (AID 2283022)
# Method in brief: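 RT-PCR/capillary electrophoresis read-out of reporter mRNA induction in transiently transfected HepG2; 24 h dosing; chimeric NR-Gal4 (TRANS format); gain-of-signal fit against DMSO baseline.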
# [12] = molecular target: Peroxisome proliferator-activated receptor gamma (Homo sapiens) (UniProt P37231); assay: ATG_PPARg_TRANS: Attagene TRANS-FACTORIAL HepG2 Assay for human Peroxisome Proliferator-activated Receptor-gamma (PPARg) (AID 2283007)
# Method in brief: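 Endpoint reflects upward reporter mRNA change versus DMSO controls. Setup: transiently transfected HepG2, GAL4-UAS reporters driven by chimeric NR-Gal4, 24 h incubation, RT-PCR with capillary electrophoresis read-out.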
# [13] = read-out: Glyceraldehyde-3-phosphate dehydrogenase (Homo sapiens) (UniProt P04406); assay: CLD_GAPDH_48hr: CellzDirect (CLD) Gene Expression Assay for Baseline Control (Glyceraldehyde 3-phosphate dehydrogenase) at 48 hours (AID 2283706)
# Method in brief: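 GAPDH baseline-control readout: qNPA chemiluminescent mRNA quantitation in human liver primary cells 48 h after daily dosing on two consecutive days, vehicle 0.2% DMSO; gain of signal fitted against DMSO, cytotoxicity flagged by phase-contrast morphology.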
# [14] = read-out: organic anion transporter (SLCO1B1), SLCO1B1 (gene 10599); assay: CLD_SLCO1B1_48hr: CellzDirect (CLD) Gene Expression Assay for organic anion transporter (SLCO1B1) at 48 hours (AID 2283707)
# Method in brief: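 SLCO1B1 transcript quantified by qNPA with chemiluminescent readout after 48 h of once-daily chemical exposure. Cultured human primary hepatocytes came from two donors, with 0.2% DMSO vehicle; positive-direction fitting against DMSO, cytotoxicity flagged by morphology.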
# [15] = ACEA_ER_AUC_viability: ACEA Biosciences xCELLigence Real-Time Cell Analysis on Estrogen Receptor Agonism for Viability (AID 2283782);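 also: hit means loss of impedance signal meaning reduced cell growth or viability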
# Method in brief: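 Read-out: real-time electrical impedance (RT-CES) area under curve, loss of signal taken as reduced viability, normalized to DMSO baseline. T-47D cells, charcoal-stripped serum medium, compounds up to 100 uM final, continuous exposure, 80 h.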
# [16] = molecular target: human Peroxisome Proliferator-activated Receptor delta (PPARd), PPARD (gene 5467) (UniProt Q03181); assay: ATG_PPARd_TRANS: Attagene TRANS-FACTORIAL HepG2 Assay for human Peroxisome Proliferator-activated Receptor delta (PPARd) (AID 2283002)
# Method in brief: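 Read-out: reporter mRNA induction, quantified by fluorescent RT-PCR products resolved by capillary electrophoresis. Human HepG2 liver cells carried transiently transfected Gal4-UAS reporter constructs with chimeric NR-Gal4 fusions. Cells were dosed for 24 h; DMSO served as baseline.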
# [17] = molecular target: Cellular tumor antigen p53 (Homo sapiens) (UniProt P04637); assay: TOX21_p53_BLA_p2_ratio: Tox21 HCT-116 p53 Agonism Beta-lactamase Assay, Ratio, Phase 2 (AID 2283592)
# Method in brief: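 Readout: blue/green (460/530 nm) FRET emission ratio after 2 h CCF4-AM loading at room temperature, excitation 405 nm. HCT116 p53 bla cells, 16 h compound exposure at 37C, 5% CO2; agonist direction fitted against DMSO baseline.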
# [18] = TOX21_p53_BLA_p5_viability: Viability Assessment in the Tox21 HCT-116 p53 Agonism Beta-lactamase Assay, Phase 5 (AID 2283600)
# Method in brief: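 ATP luminescence (CellTiter-Glo, 30 min, RT) served as the viability read-out, with loss of signal indicating cytotoxicity. Compounds in DMSO were pinned at a 217-fold dilution onto 4000 cells/well and incubated 16 h, 37C.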
# [19] = CCTE_Harrill_HTTr_CellCount_MCF7: CCTE's Cell Proliferation Assessment for the High-Throughput Transcriptomics (HTTr) Platform, Harrill Lab (AID 2284012);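 also: cells exposed to compound for six hours; intended direction is loss of nuclei count meaning fewer cells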
# Method in brief: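 Cell count served as viability reporter: loss of Hoechst-stained nuclei, counted by high content imaging, marks decreased growth or survival. Exposure was 6 h in MCF-7 cells across eight concentrations, with DMSO as baseline.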
structure (smiles),measurement,setting,value
CCCCOC(=O)c1ccccc1C(=O)O,AC50,[1],inconclusive: 0.0129 µM
same,outcome,[2],inactive
same,outcome,[3],inactive
same,AC50,[4],inconclusive: 46.1 µM
same,outcome,[5],inactive
same,AC50,[6],inconclusive: 20 µM
same,outcome,[7],inactive
same,AC50,[8],inconclusive: 0.4 nM
O=C(O)c1cc(Oc2ccc(C(F)(F)F)cc2Cl)ccc1[N+](=O)[O-],AC50,[1],inconclusive: 13.2 µM
same,AC50,[12],active: 37.1 µM
same,outcome,[10],inactive
same,AC50,[5],inconclusive: 20 µM
same,AC50,[6],inconclusive: 20 µM
same,outcome,[7],inactive
same,AC50,[13],inconclusive: 266 nM
same,outcome,[14],inactive
same,AC50,[8],active: 26 nM
same,outcome,[15],inactive
O=C=Nc1ccccc1,AC50,[1],inconclusive: 0.127 µM
same,AC50,[9],inconclusive: 25.4 µM
same,outcome,[2],inactive
same,AC50,[10],inconclusive: 25.4 µM
COP(N)(=S)OC,AC50,[1],inconclusive: 23.8 µM
same,AC50,[16],inconclusive: 100 µM
same,AC50,[12],inconclusive: 100 µM
same,AC50,[10],inconclusive: 100 µM
same,outcome,[11],inactive
N#Cc1ccccc1Cl,AC50,[9],inconclusive: 100 µM
same,outcome,[16],inactive
same,AC50,[12],inconclusive: 0.0823 µM
same,AC50,[2],inconclusive: 100 µM
same,AC50,[10],inconclusive: 100 µM
same,outcome,[15],inactive
CC(C)C1(C)N=C(c2nc3ccccc3cc2C(=O)O)NC1=O (stereo not drawn),outcome,[1],inactive
same,outcome,[16],inactive
same,AC50,[11],inconclusive: 11.6 µM
same,AC50,[17],inconclusive: 46.4 µM
same,outcome,[17],inactive
same,AC50,[3],inconclusive: 46.4 µM
same,AC50,[18],inconclusive: 46.1 µM and inconclusive: 46.4 µM
same,AC50,[4],inconclusive: 44.6 µM
same,outcome,[4],inactive
same,outcome,[6],inactive
same,outcome,[7],inactive
same,AC50,[13],inconclusive: 1.41 nM
same,AC50,[14],inconclusive: 20 µM
same,AC50,[8],inconclusive: 0.401 nM
same,AC50,[15],inconclusive: 50 µM
same,AC50,[19],inconclusive: 50 µM

# Quoted from the listing (three entries):
structure (smiles),measurement,setting,value
O=C(O)c1cc(Oc2ccc(C(F)(F)F)cc2Cl)ccc1[N+](=O)[O-],AC50,[1],inconclusive: 13.2 µM
same,AC50,[12],active: 37.1 µM
same,outcome,[10],inactive

# Source: PubChem BioAssay (EPA / NIEHS)
